ChEMBL document CHEMBL1147268, “New triterpene glycosides from the stems of Anomospermum grandifolium” (2003)
Values after ≈ are worked out from the molar mass of the structure shown.

System: Staphylococcus aureus
Test: Antibacterial activity against Staphylococcus aureus ATCC 25923 after 18 hrs by broth microdilution method
Type: functional
Conditions: ATCC 25923, 18 h

## CC1(C)S[C@@H]2[C@H](NC(=O)[C@H](N)c3ccccc3)C(=O)N2[C@H]1C(=O)O [AMPICILLIN]
  MIC: 0.5 µg/mL (≈ 1.43 µM)
